Data: paper PMC10163288
Some of the results follow.

B1: il2ra_site2_3nfp_normal_mot_HHH_b2_03377_000000137_0001_25_41_H_._HHH_b1_03268_af2_0001_0000100007_0000001_0 (protein)
chain: SSSSSEERVEELLEEARELAKEGNPEEAREILREAAEIAYELRNHELFALIAEVIFLVVQLSSSS
B2: il2ra_site1_1z92_normal_mot_HHH_b1_01250_000000104_0001_1_17_H_._HHH_b2_06740_0001_0000100006_0000001_0_af2pred_0001_af2pred (protein)
chain: SSSNEEQLRKDARIIVETAVKLAGLSEEDEKILEEVAEKLVEEGFDLEEISRILDEVALELLSSS
B3: il2ra_site1_3nfp_sap_14_mot_HHH_b1_07440_af2_000000231_0001_1_19_H_._HHH_b2_02190_0001_0000300007_0000001_1_0001 (protein)
chain: SSSSSEMEEAFELVRKLWEASHNGDKELAKELAEELFELAEEINDRIALRFAEEVLKQLNSSSSS
B4: il2ra_site1_1z92_sap_11_mot_2f77cdb525a7c630ef91a614e4fe6388_0001_000000110_0001_1_12_H_._HHH_eva_0027_0001_0000200020_0000001_0_0001 (protein)
chain: SSSSDEELREVVERLVEKYNLSEDAKRALEWAVEDLEELGQDEHTAKKFLERLAEMIRKLLSSSS
B5: il2ra_site2_3nfp_normal_mot_HHH_b2_02437_000000052_0001_42_56_H_._HHH_b1_05520_0001_0000200021_0000001_0 (protein)
chain: SSSSSSDVEELIEEAKRLLEEGNPEEAQRVLAEATHLAFERRDSELFYLIAELLLELWSSSSSSS
B6: il2ra_site1_1z92_normal_mot_73a3237f21306322153cb43486d2ff88_0001_1_af2_000000006_0001_34_49_H_._66959ead3e6c57cb3ef8243f3eb758e0_0001_1_0001_0000300041_0000001 … (protein)
chain: SEAEEELRAAVAARDEAALRAFLQRLLRDTGDPELARQLLRILVKKLGLPEEVLERLLALLDELA
B7: il2ra_site1_3nfp_sap_22_mot_9895c1d898f6985d52506ef494acec2a_0001_1_af2_000000173_0001_18_31_H_._HHH_b2_07414_af2_0001_0000400009_0000001_0_0001_1 (protein)
chain: DEEEAIRHAIETAAEFARVPSWEWEIENGHVTITFKGDDEQVRHASKLIAEMLRSFGIDVEVEVE
B8: il2ra_site2_2erj_sap_20_mot_HHH_b1_06542_af2_000000257_0001_1_17_H_._HHH_b1_06625_0001_0000700039_0000001_0_0001 (protein)
chain: SSSSDESVKAAREFIEKLIEEGDLERAKAYAELAERYLRAAGDEESLRLIEELLEEVEKLLSSSS
B9: il2ra_site2_3nfp_normal_mot_HHH_b2_07498_000000057_0001_1_14_H_._HHH_b2_00986_0002_0000600024_0000001_0 (protein)
chain: SSSSDIEERVKELLEEARELLEEGDRFEAARLVVEATRLAVEGNDPELAREVLELYRLIKGSSSS
B10: il2ra_site1_1z92_sap_21_mot_35b94aac26684153dbcc4bf06a514b74_0001_1_000000068_0001_35_49_H_._HEEHE_2006_af2_0001_0000400023_0000001_0_0001_af2pred_0001_af2pred (protein)
chain: SSSSDEEEAAEEIVREVVEKLGLSEEDREALERDAEQSLRRGISERSVKQALEKAAKRERSSSSS
B11: il2ra_site2_2erj_normal_mot_677c0ffea6ecdb64f8a38b1d430a01c6_0001_af2_000000059_0001_1_15_H_._HHH_b2_08335_0001_0000100001_0000001_0 (protein)
chain: SSSSDEEVREEVERLLEEAKKIEDPHEAAAVVIEAAELAVRNDDEELLREISRIFAELYGSSSSS
B12: il2ra_site2_2erj_normal_mot_HHH_b2_02252_af2_000000112_0001_23_39_H_._HHH_b2_01517_af2_0001_0000900007_0000001_0 (protein)
chain: SSSSSDELEELLQEAKELLEEGNPEEALEAARRAAELAFKLGDHRAFAEIVELAHEIVRHSSSSS
B13: il2ra_site1_2b5i_normal_mot_HHH_b1_01419_af2_000000080_0001_42_53_H_._HHH_b1_08112_af2_0001_0000400046_0000001_0 (protein)
chain: SSSSDEAWEQVEELFLEASRLFRNGNPEEAEKVLEEALRLAEEHNDERAAKQLKEMLERLSSSSS
B14: il2ra_site2_2erj_sap_29_mot_HHH_b2_04712_af2_000000260_0001_42_56_H_._HHH_b1_03205_0001_0000100001_0000001_1_0001 (protein)
chain: SSSSDESLRALEELVEEAEEKNDKERLRLLFEFVRLQLEQLNDPRVEELLELIKKLLEELSSSSS
B15: il2ra_site1_1z92_normal_mot_54e474eed2d0515e81978198f0f96ec2_0001_000000202_0001_15_30_H_._9e622f7d73aa0ff91040b48e8c7f7504_0001_1_af2_0001_0000100005_0000001_0 … (protein)
chain: DEEEAEELLREILKEEGSEQLLERLLRRAEEEMGDPRLALLALIRVALYLTGDPRLEEALELVKK
B16: il2ra_site1_2b5i_normal_mot_HHH_b2_04910_000000118_0001_1_19_H_._HHH_b2_02427_0001_0000500041_0000001_0_af2pred_dldesign_0_af2pred (protein)
chain: SSSSSDAAKVRELALEAERLFKAGKEEEAKKVLEEALKLAEELGSTSWIKFINLALKQLESSSSS
B17: il2ra_site1_1z92_normal_mot_HHH_b2_00124_000000173_0001_1_17_H_._HHH_b2_00888_0001_0000200026_0000001_0_af2pred_0001_af2pred (protein)
chain: SSSDEEARRLEHEVAELLDEAEERGDEELLREILEEALRLAEELNDKRLVKYIRFLLRRLNSSSS
B18: il2ra_site2_3nfp_normal_mot_HHH_b1_04756_000000059_0001_41_55_H_._HHH_b1_00819_0001_0000300036_0000001_0 (protein)
chain: SSSSDEEEKRVEELLEEAEELLRRGNPEEAQRVLAEATHLVFERRNVELYAELQRLALLVYSSSS
B19: il2ra_site2_3nfp_sap_20_mot_HHH_b2_08245_000000023_0001_41_55_H_._HHH_b1_00950_0001_0000400017_0000001_1_0001 (protein)
chain: SSSSKAEEYLRVALELLKQLKEQGSEEAARRVARAALAAAEDQNDEELFEEIREILEELESSSSS

These binders were tested against il2ra, P01589 (assay: yeast display titration).
B1 was tested, and the “apparent Kd” value was “inactive: no binding seen”. With B2 the “apparent Kd” value was “inactive: no binding seen”. In the case of B3, the “apparent Kd” value is reported as “inactive: no binding seen”. In the case of B4, the “apparent Kd” value is reported as “inactive: no binding seen”. In the case of B5, the “apparent Kd” value is reported as “inactive: no binding seen”. With B6 the “apparent Kd” value was “inactive: no binding seen”. With B7 the “apparent Kd” value was “inactive: no binding seen”. For B8, the “apparent Kd” value was “inactive: no binding seen”. B9 was tested, and the “apparent Kd” value was “inactive: no binding seen”. B10 was tested, and the “apparent Kd” value was “inactive: no binding seen”. B11 was tested, and the “apparent Kd” value was “inactive: no binding seen”. With B12 the “apparent Kd” value was “inactive: no binding seen”. With B13 the “apparent Kd” value was “inactive: no binding seen”. For B14, the “apparent Kd” value was “inactive: no binding seen”. B15 was tested, and the apparent Kd was inactive: > 1.46 µM. B16 was tested, and the “apparent Kd” value was “inactive: no binding seen”. With B17 the “apparent Kd” value was “inactive: no binding seen”. B18 was tested, and the “apparent Kd” value was “inactive: no binding seen”. In the case of B19, the “apparent Kd” value is reported as “inactive: no binding seen”.
